# No constants are given. Whether binding was seen depends on the method and setting. Binding seen in cells or lysates may run through a third protein. Some binding calls cover weakened binding; strength is not graded here.
# Sequences of proteins named here, by UniProt entry; tags and fusion partners are left off.
# UniProt Q9HC29: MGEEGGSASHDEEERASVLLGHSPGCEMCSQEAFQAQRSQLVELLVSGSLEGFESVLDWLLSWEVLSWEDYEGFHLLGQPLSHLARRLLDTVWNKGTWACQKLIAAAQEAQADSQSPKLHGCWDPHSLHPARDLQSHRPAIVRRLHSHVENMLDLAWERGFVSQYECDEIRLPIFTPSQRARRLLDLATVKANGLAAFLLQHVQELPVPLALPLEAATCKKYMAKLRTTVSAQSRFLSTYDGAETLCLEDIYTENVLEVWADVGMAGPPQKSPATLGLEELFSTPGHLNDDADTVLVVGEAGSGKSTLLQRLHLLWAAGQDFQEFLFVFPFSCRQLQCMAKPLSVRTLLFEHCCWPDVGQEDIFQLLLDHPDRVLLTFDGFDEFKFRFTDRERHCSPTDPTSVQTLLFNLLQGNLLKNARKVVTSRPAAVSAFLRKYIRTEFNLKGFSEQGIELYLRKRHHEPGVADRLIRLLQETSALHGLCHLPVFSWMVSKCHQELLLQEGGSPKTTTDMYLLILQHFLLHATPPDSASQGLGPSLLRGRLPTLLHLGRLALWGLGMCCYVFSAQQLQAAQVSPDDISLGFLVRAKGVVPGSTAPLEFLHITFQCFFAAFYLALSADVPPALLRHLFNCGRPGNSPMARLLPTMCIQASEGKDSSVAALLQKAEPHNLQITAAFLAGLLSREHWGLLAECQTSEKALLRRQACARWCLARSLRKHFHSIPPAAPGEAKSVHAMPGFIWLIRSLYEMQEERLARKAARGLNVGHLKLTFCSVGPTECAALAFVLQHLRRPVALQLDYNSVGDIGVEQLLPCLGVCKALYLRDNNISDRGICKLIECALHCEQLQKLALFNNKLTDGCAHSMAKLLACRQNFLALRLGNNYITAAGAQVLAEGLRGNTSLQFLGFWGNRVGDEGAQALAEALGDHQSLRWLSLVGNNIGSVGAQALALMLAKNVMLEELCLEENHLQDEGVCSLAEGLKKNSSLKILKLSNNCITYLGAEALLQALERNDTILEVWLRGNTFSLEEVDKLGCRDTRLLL
# UniProt Q7Z434: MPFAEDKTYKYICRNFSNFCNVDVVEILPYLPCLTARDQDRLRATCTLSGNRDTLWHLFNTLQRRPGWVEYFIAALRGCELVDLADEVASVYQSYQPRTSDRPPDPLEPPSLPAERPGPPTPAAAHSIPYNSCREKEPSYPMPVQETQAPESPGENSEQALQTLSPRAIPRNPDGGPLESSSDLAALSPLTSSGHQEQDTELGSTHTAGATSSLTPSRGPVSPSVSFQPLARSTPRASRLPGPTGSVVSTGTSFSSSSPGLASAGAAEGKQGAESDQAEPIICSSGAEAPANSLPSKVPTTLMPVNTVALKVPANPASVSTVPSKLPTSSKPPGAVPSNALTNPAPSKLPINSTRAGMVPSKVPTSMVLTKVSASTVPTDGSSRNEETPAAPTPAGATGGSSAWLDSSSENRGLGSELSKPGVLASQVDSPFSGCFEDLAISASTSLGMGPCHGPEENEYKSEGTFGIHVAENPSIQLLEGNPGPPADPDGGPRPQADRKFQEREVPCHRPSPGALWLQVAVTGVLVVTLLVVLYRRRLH
# Columns and labels:
# [1] = target: NOD2 (human (endogenous in THP-1)) (UniProt Q9HC29); assay: condition: only mock cells (neither infected with DENV-2 nor transfected with PIC); co-IP; 150 µg of RIPA lysate of mock (untreated) THP-1 macrophage-like cells; anti-NOD2 antibody (2 µg) overnight at 4 °C, protein A agarose, eight washes with PBS; immunoblot with anti-MAVS
# [2] = target: NOD2 (human (endogenous in THP-1)) (UniProt Q9HC29); assay: co-IP; 150 µg of RIPA lysate of THP-1 macrophage-like cells infected with DENV-2 (MOI 10) or transfected with PIC, 12 h; anti-NOD2 antibody (2 µg) overnight at 4 °C, protein A agarose, eight washes with PBS; immunoblot with anti-MAVS
substance,measurement,setting,value
MAVS (mitochondrial antiviral signaling protein) (from UniProt Q7Z434 1-540),binding,[1],no binding
same,binding,[2],binds

# Reference: article PMC11054756
